Results: patent publication US20110275569A1 (CONSIGLIO NAZIONALE DELLE RICERCHE, priority 2008, published 2011)
Where a sequence shows no end group, the ends are not given. One purity is given for all peptides; the source may state it once.

test: general procedure: Fmoc solid-phase peptide synthesis; conditions: whole synthesis

Final HPLC purity, >95%:
YAIDTILAEIKNINAD
H-TILLEIKNINAD-NH2
YAIDTILLEIKNINAD
TILAEIKNINAD
